Results: patent US20250213546A1, “TREATING CANCER WITH SMALL MOLECULES THAT INHIBIT ACSS-2” (DREXEL UNIVERSITY, priority 2022, published 2025)

Test: Human liver microsome stability
Type: in vitro ADME
Method: Metabolic Stability and Plasma Stability. Test compound Working solution: 5 μL of compound stock solution (10 mM in dimethyl sulfoxide (DMSO)) were diluted with 495 μL of DMSO (Working solution concentration: 100 μM, 100% DMSO). Propantheline bromide Working solution: 5 μL of Propantheline bromide stock solution (10 mM in H2O) were diluted with 495 μL of H2O (Working solution concentration: 100 μM, 100% H2O)

Q: Which results are given for CCCNCC(O)COc1ccccc1C(=O)CCc1ccccc1 (centres unmarked) [Propafenone, reference compound]?
A: Human Liver Microsome Stability Remaining(T = 60 min) (60 min, given as fraction): 0.00396; Human Liver Microsome Stability CLint(liver) (human liver microsomes, scaled to liver): 157.5135 mL/min/kg
